Test results published in the supplement of paper PMC11006884.
This is a selection; strong and weak results do not stand in their true shares. The data scatter; read single values as rough.

Amino acid sequences for entries named in this document (tags omitted). A change or cut given only in a name is not applied to a line headed by its entry.
UniProt P15170, whole entry, looked up: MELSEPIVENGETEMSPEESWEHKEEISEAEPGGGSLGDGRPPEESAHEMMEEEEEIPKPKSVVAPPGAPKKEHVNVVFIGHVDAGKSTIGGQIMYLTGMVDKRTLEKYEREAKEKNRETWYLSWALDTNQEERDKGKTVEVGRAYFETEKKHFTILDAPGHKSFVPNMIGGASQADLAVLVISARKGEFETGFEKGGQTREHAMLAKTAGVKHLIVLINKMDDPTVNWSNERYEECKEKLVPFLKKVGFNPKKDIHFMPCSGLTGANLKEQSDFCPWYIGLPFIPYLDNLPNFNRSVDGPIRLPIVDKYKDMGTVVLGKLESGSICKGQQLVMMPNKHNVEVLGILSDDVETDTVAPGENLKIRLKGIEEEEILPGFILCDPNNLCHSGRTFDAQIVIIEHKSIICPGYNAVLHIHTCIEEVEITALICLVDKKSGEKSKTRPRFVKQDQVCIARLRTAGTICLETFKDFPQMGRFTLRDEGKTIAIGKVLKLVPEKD
UniProt P14618, whole entry, looked up: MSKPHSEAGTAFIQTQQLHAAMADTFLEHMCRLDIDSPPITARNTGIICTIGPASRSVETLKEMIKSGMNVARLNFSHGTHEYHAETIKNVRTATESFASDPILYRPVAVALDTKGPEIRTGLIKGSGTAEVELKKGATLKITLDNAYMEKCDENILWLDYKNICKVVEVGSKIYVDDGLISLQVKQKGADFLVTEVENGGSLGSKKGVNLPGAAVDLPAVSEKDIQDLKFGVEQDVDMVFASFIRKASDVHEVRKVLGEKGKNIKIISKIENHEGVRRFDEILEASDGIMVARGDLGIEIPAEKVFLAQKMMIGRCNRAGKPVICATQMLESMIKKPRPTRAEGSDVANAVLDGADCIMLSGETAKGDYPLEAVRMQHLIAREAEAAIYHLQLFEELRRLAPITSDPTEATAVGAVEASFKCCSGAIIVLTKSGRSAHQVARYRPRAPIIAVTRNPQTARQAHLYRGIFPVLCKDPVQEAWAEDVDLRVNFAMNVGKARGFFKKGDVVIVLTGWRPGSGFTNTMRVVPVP
UniProt P09234, whole entry, looked up: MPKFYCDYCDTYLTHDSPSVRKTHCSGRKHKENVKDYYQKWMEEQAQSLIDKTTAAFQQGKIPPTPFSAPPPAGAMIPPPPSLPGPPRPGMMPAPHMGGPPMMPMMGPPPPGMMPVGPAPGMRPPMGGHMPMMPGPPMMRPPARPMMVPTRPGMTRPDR
UniProt P13797: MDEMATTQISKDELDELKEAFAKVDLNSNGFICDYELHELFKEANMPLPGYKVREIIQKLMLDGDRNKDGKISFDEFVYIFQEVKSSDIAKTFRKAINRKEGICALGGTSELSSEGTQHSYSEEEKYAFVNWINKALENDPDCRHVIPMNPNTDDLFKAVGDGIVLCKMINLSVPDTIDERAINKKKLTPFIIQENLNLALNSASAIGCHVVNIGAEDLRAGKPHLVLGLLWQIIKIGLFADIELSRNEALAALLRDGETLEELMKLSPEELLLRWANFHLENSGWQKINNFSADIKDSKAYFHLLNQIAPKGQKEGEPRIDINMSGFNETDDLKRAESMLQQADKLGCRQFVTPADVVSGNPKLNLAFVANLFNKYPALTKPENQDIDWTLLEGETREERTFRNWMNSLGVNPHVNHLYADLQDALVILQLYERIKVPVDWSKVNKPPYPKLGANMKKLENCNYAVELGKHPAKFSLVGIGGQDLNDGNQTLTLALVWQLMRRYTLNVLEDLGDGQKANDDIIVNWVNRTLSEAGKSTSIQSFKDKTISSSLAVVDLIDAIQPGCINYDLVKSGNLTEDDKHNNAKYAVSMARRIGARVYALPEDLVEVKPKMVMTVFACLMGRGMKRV
UniProt P11142, whole entry, looked up: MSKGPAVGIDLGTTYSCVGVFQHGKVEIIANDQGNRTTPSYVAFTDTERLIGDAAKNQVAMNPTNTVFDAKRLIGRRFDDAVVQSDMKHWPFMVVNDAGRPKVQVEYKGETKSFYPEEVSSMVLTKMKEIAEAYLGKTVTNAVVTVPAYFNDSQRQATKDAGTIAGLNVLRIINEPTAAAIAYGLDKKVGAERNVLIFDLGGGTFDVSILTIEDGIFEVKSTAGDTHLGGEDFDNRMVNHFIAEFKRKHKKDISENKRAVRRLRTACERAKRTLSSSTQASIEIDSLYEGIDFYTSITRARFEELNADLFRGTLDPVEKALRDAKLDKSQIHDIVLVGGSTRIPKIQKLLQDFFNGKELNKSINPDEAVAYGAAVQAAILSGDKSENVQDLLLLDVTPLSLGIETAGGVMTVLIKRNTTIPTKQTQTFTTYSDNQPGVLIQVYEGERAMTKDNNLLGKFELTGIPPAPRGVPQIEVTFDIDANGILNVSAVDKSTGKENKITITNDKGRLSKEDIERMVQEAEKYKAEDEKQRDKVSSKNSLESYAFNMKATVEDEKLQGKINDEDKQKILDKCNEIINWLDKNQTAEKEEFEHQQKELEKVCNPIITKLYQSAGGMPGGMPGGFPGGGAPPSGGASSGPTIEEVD
UniProt P0CG30: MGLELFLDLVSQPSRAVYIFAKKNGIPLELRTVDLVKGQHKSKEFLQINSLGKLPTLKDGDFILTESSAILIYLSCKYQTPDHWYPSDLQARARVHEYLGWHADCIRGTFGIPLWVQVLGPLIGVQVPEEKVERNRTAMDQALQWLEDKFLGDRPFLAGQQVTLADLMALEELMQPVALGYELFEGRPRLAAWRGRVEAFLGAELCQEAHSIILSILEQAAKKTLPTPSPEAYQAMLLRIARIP
UniProt P16930: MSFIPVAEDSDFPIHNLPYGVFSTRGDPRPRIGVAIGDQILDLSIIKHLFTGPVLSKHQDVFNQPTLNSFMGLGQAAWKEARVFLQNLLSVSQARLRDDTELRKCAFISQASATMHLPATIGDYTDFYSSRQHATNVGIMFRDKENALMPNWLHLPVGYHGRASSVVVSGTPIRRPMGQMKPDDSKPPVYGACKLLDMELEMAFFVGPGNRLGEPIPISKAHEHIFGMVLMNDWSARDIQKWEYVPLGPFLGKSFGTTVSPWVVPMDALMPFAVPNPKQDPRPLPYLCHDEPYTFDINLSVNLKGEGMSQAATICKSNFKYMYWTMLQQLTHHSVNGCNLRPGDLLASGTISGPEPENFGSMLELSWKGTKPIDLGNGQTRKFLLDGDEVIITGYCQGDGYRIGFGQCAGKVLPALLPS
UniProt P08621, whole entry: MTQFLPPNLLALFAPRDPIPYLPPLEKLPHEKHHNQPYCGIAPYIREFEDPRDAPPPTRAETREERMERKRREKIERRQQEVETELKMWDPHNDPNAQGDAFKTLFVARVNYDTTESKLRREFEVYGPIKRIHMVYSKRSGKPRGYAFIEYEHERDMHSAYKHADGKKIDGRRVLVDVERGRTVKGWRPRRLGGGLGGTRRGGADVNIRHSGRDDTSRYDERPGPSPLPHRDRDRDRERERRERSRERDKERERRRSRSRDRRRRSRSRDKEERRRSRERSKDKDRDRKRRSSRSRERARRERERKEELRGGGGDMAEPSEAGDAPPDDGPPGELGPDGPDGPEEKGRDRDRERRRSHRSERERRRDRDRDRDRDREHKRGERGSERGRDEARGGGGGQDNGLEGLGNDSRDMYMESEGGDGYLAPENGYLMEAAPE
UniProt P0DMV8, whole entry, looked up: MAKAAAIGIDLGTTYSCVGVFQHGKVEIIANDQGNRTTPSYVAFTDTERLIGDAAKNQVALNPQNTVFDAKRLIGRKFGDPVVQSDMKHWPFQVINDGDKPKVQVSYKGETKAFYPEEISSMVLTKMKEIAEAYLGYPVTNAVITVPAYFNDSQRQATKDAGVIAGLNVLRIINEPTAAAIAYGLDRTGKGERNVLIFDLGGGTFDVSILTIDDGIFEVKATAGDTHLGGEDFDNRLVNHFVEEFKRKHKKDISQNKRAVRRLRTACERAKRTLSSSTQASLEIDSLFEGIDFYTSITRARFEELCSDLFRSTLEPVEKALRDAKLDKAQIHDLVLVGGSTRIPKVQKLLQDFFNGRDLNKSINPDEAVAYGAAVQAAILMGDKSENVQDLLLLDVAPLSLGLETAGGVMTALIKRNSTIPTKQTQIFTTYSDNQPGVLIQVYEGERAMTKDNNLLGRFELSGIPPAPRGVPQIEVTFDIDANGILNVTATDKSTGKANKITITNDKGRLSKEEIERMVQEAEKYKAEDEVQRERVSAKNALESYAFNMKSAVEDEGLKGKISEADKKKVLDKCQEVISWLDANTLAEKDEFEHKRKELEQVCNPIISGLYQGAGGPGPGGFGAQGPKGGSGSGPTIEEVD
UniProt P13489: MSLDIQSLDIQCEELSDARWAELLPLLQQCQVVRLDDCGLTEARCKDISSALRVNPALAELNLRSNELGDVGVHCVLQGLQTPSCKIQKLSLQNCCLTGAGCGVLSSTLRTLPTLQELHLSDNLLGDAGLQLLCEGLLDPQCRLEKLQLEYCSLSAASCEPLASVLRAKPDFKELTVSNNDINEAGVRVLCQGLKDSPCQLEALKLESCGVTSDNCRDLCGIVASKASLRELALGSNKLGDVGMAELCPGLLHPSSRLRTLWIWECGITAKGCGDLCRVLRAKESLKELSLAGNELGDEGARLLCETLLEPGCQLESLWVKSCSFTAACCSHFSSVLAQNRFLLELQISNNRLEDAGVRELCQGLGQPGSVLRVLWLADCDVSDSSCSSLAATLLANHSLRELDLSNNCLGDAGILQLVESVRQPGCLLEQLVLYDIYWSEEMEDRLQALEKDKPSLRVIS
UniProt P09211: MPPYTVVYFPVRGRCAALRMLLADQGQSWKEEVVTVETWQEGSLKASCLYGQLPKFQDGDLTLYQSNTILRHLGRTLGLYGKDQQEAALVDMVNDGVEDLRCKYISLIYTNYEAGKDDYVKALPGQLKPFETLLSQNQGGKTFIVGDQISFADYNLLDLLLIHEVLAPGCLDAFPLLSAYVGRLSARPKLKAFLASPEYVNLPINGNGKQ
UniProt P14625, whole entry, looked up: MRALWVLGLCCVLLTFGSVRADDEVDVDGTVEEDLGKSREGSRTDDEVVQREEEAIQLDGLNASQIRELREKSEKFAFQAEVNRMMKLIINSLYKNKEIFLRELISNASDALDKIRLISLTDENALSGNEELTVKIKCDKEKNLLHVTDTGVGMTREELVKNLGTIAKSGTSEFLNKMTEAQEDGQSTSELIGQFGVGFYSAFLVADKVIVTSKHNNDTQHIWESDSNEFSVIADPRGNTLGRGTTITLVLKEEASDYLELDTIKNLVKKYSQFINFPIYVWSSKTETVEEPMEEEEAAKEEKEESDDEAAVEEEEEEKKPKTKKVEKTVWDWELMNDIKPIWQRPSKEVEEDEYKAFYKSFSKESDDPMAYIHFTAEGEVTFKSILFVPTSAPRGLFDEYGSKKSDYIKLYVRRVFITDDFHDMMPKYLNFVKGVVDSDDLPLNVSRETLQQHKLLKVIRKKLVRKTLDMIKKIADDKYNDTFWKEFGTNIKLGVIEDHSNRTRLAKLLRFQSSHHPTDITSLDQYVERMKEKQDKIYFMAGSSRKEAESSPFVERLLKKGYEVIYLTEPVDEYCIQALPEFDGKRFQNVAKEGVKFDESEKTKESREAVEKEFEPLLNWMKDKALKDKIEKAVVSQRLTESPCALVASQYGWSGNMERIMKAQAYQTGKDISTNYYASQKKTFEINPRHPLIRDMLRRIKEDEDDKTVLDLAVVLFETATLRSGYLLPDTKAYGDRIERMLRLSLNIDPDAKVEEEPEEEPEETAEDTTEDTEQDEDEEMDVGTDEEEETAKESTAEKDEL
UniProt P08238, whole entry, looked up: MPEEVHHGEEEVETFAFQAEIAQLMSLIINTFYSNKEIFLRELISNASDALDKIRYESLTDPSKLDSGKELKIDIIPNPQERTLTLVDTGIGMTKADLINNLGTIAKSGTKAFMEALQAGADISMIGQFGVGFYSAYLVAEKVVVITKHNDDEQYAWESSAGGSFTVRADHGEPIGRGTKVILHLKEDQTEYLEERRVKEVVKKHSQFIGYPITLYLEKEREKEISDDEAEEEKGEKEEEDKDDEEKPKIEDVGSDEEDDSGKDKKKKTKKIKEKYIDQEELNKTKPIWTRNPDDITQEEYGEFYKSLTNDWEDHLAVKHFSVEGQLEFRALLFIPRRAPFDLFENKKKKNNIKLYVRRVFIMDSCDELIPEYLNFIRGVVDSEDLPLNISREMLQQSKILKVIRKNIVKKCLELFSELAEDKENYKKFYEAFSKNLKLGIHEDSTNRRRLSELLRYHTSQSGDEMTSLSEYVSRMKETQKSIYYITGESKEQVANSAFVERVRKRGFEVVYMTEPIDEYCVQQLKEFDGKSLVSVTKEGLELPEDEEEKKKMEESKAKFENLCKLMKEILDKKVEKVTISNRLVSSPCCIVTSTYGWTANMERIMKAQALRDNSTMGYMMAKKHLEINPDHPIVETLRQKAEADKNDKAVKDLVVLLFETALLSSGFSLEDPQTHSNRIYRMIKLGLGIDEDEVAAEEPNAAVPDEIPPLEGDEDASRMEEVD
UniProt P07919: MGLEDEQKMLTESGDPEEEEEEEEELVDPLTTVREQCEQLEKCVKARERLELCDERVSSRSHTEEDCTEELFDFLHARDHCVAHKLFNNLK

Compound: COC(=O)/C=C/c1ccccc1 [methyl cinnamate]
Assay: log2 ratio of iodoacetamide-alkyne labeling of the cysteine site, DMSO over compound (competition); higher = stronger covalent engagement of the cysteine by the compound, active = 1 or more
Conditions: 500 µM; treatment time 1 h; system: HEK293T cell lysate
Procedure, shortened: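 For each cysteine, the log2 competition ratio is mean control-channel reporter intensity over mean compound-channel reporter intensity. HEK293T lysate (2 mg/mL) was exposed to vehicle or electrophile (500 µM, 1 h, ambient temperature), labelled with iodoacetamide alkyne (1 h), clicked to sCIP-TMT reagents, digested overnight with trypsin at 37 °C, streptavidin-enriched and analysed by Orbitrap Eclipse LC-MS/MS with FAIMS and FragPipe. Cysteines quantified in only one of three replicates, each with duplicate channels, were excluded.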

log2 ratio of iodoacetamide-alkyne labeling, inactive:
GSPT1 C327 (UniProt P15170) 0.165
UniProt P14618_C49 0.0528
RPSA C148 (UniProt P08865) 0.0931
SNRPC C25 (UniProt P09234) 0.226
PLS3 C463 (UniProt P13797) 0.728
CAPN2 C341 (UniProt P17655) -0.0456
HSPA8 C17 (UniProt P11142) -0.154
UniProt P0CG30_C105 0.156
EPRS C856 (UniProt P07814) 0.155
HSP90AA1 C529 (UniProt P07900) -0.125
HSPA8 C603 (UniProt P11142) 0.284
UniProt P17252_C499 -0.19
ACADM C159 (UniProt P11310) 0.342
FAH C105 (UniProt P16930) 0.202
SNRNP70 C39 (UniProt P08621) 0.359
Q95604 C125 (UniProt P10321) 0.0281
UniProt P0DMV8_C17 0.0864
CYC1 C271 (UniProt P08574) 0.228
ARAF C192 (UniProt P10398) -0.101
RNH1 C75 (UniProt P13489) 0.155
RNH1 C409 (UniProt P13489) 0.125
SP1 C68 (UniProt P08047) 0.434
GSTP1 C102 (UniProt P09211) 0.0823
EEF2 C388 (UniProt P13639) 0.115
ASNS C158 (UniProt P08243) -0.074
HSP90B1 C645 (UniProt P14625) 0.0462
HSP90AB1 C590 (UniProt P08238) -0.0211
HSP90AB1 C412 (UniProt P08238) -0.033
EEF2 C41 (UniProt P13639) 0.212
EPRS C680 (UniProt P07814) 0.113
UQCRH C37 (UniProt P07919) 0.344
ACTN1 C774 (UniProt P12814) 0.227
RNH1 C30 (UniProt P13489) 0.0196
CKMT1A C62 (UniProt P12532) 0.228
CBR1 C26 (UniProt P16152) -0.261
XRCC5 C296 (UniProt P13010) -0.062
LAMC1 C351 (UniProt P11047) 0.11

Quoted at random: three entries already listed
log2 ratio of iodoacetamide-alkyne labeling, inactive:
ARAF C192 (UniProt P10398) -0.101
RPSA C148 (UniProt P08865) 0.0931
SNRNP70 C39 (UniProt P08621) 0.359
